The list is a part of this screen's results and no random one: it is rich in T/C values a quarter to a half above the control, in often repeated tests (any T/C) and in doses without a T/C. Other doses and runs of a compound stand elsewhere. T/C is the treated group as % of the vehicle group. Schedule codes are those of the source, read here as Q, the interval in days (D) or hours (H), X, the number of doses. Some entries hold several experiments; their values stand side by side, smallest first. Some entries give survivors of the animals treated and no T/C: the source holds a T/C of zero for them, seemingly a mark for toxic or unscored doses. Some survivor counts are full or nearly so, which does not show that the dose was tolerated: survival well below the control is almost never listed, so the zero probably covers shortened survival too. Survivors were counted at the toxicity check, usually on the fifth day, unless a day is given; later deaths do not show. For survival time, the PubChem record calls one and a half times the control and up active, and a quarter to a half above the control has no call in these data; cut-offs in other NCI protocols can differ.

This experiment deals with BDF1 mice, s.c. Lewis lung carcinoma, T/C %. Nature of the experiment: NCI In Vivo Anticancer Drug Screen. Data for tumor model Lewis Lung Carcinoma (subcutaneous) in B6D2F1 (BDF1) mice. The method in brief: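 The value reflects a ratio in which the treated cohort's survival time or tumour size is compared against mice receiving only vehicle.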
Setting [1] is: T/C endpoint: median survival time, dose: 1.0 mg/kg/injection, schedule: Q01DX009 (ip), vehicle: saline, higher T/C = longer survival.
The mark [2] stands for this setting: T/C endpoint: median survival time, dose: 4.0 mg/kg/injection, schedule: Q01DX009 (ip), vehicle: saline, higher T/C = longer survival.
The mark [3] stands for this setting: T/C endpoint: median survival time, dose: 8.0 mg/kg/injection, schedule: Q01DX009 (ip), vehicle: saline, higher T/C = longer survival.
The mark [4] stands for this setting: T/C endpoint: median survival time, dose: 16.0 mg/kg/injection, schedule: Q01DX009 (ip), vehicle: saline, higher T/C = longer survival.
Setting [5] is: T/C endpoint: median survival time, dose: 50.0 mg/kg/injection, schedule: Q01DX009 (ip), vehicle: saline with Tween-80, higher T/C = longer survival.
Where [6] appears, read: T/C endpoint: median survival time, dose: 0.09 mg/kg/injection, schedule: Q01DX009 (ip), vehicle: DMSO, higher T/C = longer survival.
[7] abbreviates: T/C endpoint: median survival time, dose: 0.18 mg/kg/injection, schedule: Q01DX009 (ip), vehicle: DMSO, higher T/C = longer survival.

Regarding `Nc1ccc2nc3ccc(N)cc3[n+](-c3ccccc3)c2c1`, the survivor count is, setting by setting: under setting [1], 10 of 10; under setting [2], 10 of 10; under setting [3], 10 of 10; under setting [4], 10 of 10; (T/C endpoint: median survival time, dose: 32.0 mg/kg/injection, schedule: Q01DX009 (ip), vehicle: saline, higher T/C = longer survival) 5 of 10.

Consider `Cc1ccc(NC(=O)N(CCCl)N=O)cc1C`, for which the survivor count runs as follows: (T/C endpoint: median survival time, dose: 12.5 mg/kg/injection, schedule: Q01DX009 (ip), vehicle: Klucel (hydroxypropylcellulose) (HPC), higher T/C = longer survival) 9 of 10; (T/C endpoint: median survival time, dose: 25.0 mg/kg/injection, schedule: Q01DX009 (ip), vehicle: Klucel (hydroxypropylcellulose) (HPC), higher T/C = longer survival) 10 of 10; (T/C endpoint: median survival time, dose: 50.0 mg/kg/injection, schedule: Q01DX009 (ip), vehicle: Klucel (hydroxypropylcellulose) (HPC), higher T/C = longer survival) 8 of 10.

Take `NC(=S)N/N=C\c1nccc2c(N)cccc12`: the T/C under setting [5] was 129 % of control.

Regarding `CN(C)/N=N/c1nc[nH]c1C(N)=O`, the survivor count by setting is: (T/C endpoint: mean tumor weight, dose: 400.0 mg/kg/injection, schedule: Q01DX010 (ip), vehicle: saline, higher T/C = larger tumour) 2 of 6; (T/C endpoint: mean tumor weight, dose: 800.0 mg/kg/injection, schedule: Q01DX010 (ip), vehicle: saline, higher T/C = larger tumour) 0 of 6; (T/C endpoint: median survival time, dose: 40.0 mg/kg/injection, schedule: Q01DX015 (ip), vehicle: carboxymethylcellulose (CMC), higher T/C = longer survival) 10 of 10; (T/C endpoint: median survival time, dose: 75.0 mg/kg/injection, schedule: Q01DX009 (ip), vehicle: saline with Tween-80, higher T/C = longer survival) 9 of 9; (T/C endpoint: median survival time, dose: 150.0 mg/kg/injection, schedule: Q01DX009 (ip), vehicle: saline with Tween-80, higher T/C = longer survival) 10 of 10; (T/C endpoint: median survival time, dose: 300.0 mg/kg/injection, schedule: Q01DX009 (ip), vehicle: Klucel (hydroxypropylcellulose) (HPC), higher T/C = longer survival) 10 of 10. The survivor count is 10 of 10 and 9 of 9 (T/C endpoint: median survival time, dose: 300.0 mg/kg/injection, schedule: Q01DX009 (ip), vehicle: saline with Tween-80, higher T/C = longer survival); 9 of 10 (T/C endpoint: median survival time, dose: 400.0 mg/kg/injection, schedule: Q01DX009 (ip), vehicle: saline with Tween-80, higher T/C = longer survival); 10 of 10 (T/C endpoint: median survival time, dose: 670.0 mg/kg/injection, schedule: Q01DX001 (ip), vehicle: carboxymethylcellulose (CMC), higher T/C = longer survival); 8 of 10 and 8 of 10 on day 11 (T/C endpoint: median survival time, dose: 1005.0 mg/kg/injection, schedule: Q01DX001 (ip), vehicle: carboxymethylcellulose (CMC), higher T/C = longer survival). The T/C is 131 % of control under setting [5]; 149 % of control (T/C endpoint: median survival time, dose: 60.0 mg/kg/injection, schedule: Q01DX015 (ip), vehicle: carboxymethylcellulose (CMC), higher T/C = longer survival); 125 % of control (T/C endpoint: median survival time, dose: 75.0 mg/kg/injection, schedule: Q01DX009 (ip), vehicle: Klucel (hydroxypropylcellulose) (HPC), higher T/C = longer survival); 126 % of control (T/C endpoint: median survival time, dose: 150.0 mg/kg/injection, schedule: Q01DX009 (ip), vehicle: Klucel (hydroxypropylcellulose) (HPC), higher T/C = longer survival); 134 % of control (T/C endpoint: median survival time, dose: 450.0 mg/kg/injection, schedule: Q01DX001 (ip), vehicle: carboxymethylcellulose (CMC), higher T/C = longer survival).

In the case of `CC(C)Sc1nc(N)nc2nc[nH]c12`, under “T/C endpoint: mean tumor weight, dose: 600.0 mg/kg/injection, schedule: Q01DX011 (ip), vehicle: other, higher T/C = larger tumour”, the survivor count is listed as 0 of 6.

Take `CC[n+]1ccc(Nc2ccc(/C=C/c3ccc4cc(Nc5cc[n+](CC)cc5)ccc4[n+]3CC)cc2)cc1`: under “T/C endpoint: median survival time, dose: 20.0 mg/kg/injection, schedule: Q01DX009 (ip), vehicle: saline, higher T/C = longer survival”, the survivor count is 1 of 10.

In the case of `COc1cc(C=Nc2ccc(-n3ccnc3C)cc2)ccc1N(CCCl)CCCl`, for the setting “T/C endpoint: median survival time, dose: 20.0 mg/kg/injection, schedule: Q01DX009 (ip), vehicle: Klucel (hydroxypropylcellulose) (HPC), higher T/C = longer survival”, the survivor count is listed as 10 of 10.

In the case of `O=P(N1CC1)(N1CC1)N1CC1`, the survivor count reads like this: (T/C endpoint: mean tumor weight, dose: 0.4 mg/kg/injection, schedule: Q01DX011 (ip), vehicle: other, higher T/C = larger tumour) 3 of 6; (T/C endpoint: mean tumor weight, dose: 2.0 mg/kg/injection, schedule: Q01DX011 (ip), vehicle: other, higher T/C = larger tumour) 0 of 6; (T/C endpoint: mean tumor weight, dose: 3.0 mg/kg/injection, schedule: Q01DX011 (ip), vehicle: other, higher T/C = larger tumour) 0 of 6; (T/C endpoint: mean tumor weight, dose: 5.0 mg/kg/injection, schedule: Q01DX011 (ip), vehicle: other, higher T/C = larger tumour) 0 of 6; (T/C endpoint: mean tumor weight, dose: 7.0 mg/kg/injection, schedule: Q01DX011 (ip), vehicle: other, higher T/C = larger tumour) 0 of 6; (T/C endpoint: median survival time, dose: 0.5 mg/kg/injection, schedule: Q01DX009 (ip), vehicle: saline, higher T/C = longer survival) 10 of 10. Moreover, the survivor count by setting is: under setting [1], 9 of 10; (T/C endpoint: median survival time, dose: 2.0 mg/kg/injection, schedule: Q01DX009 (ip), vehicle: saline, higher T/C = longer survival) 10 of 10; under setting [2], 10 of 10; under setting [3], 10 of 10; under setting [4], 10 of 10.

Turning to `COc1ccc2c(c1)CC[C@@H]1[C@@H]2CC[C@]2(C)/C(=N\O)CC[C@@H]12`, the T/C (T/C endpoint: mean tumor weight, dose: 50.0 mg/kg/injection, schedule: Q01DX011 (sc), vehicle: steroid suspending solution, evaluated on day 12, higher T/C = larger tumour) was 128 and 136 % of control. For the same compound, the survivor count (T/C endpoint: mean tumor weight, dose: 800.0 mg/kg/injection, schedule: Q01DX011 (sc), vehicle: steroid suspending solution, higher T/C = larger tumour) is recorded as 5 of 8.

Consider `CCCCOP(=S)(N1CC1)N1CC1`, for which the survivor count (T/C endpoint: mean tumor weight, dose: 20.0 mg/kg/injection, schedule: Q01DX011 (ip), vehicle: saline, higher T/C = larger tumour) is listed as 1 of 6.

Turning to `CC(=O)OC/C=C(C)/C=C/C=C(C)/C=C/C1=C(C)CCCC1(C)C`, the T/C runs as follows: (T/C endpoint: median survival time, dose: 400.0 mg/kg/injection, schedule: Q01DX005 (ip), vehicle: saline with Tween-80, higher T/C = longer survival) 137 % of control; (T/C endpoint: median survival time, dose: 800.0 mg/kg/injection, schedule: Q01DX005 (ip), vehicle: saline with Tween-80, higher T/C = longer survival) 126 % of control; (T/C endpoint: median survival time, dose: 1600.0 mg/kg/injection, schedule: Q01DX005 (ip), vehicle: saline with Tween-80, higher T/C = longer survival) 132 % of control.

On to `CCOc1ccc(Nc2ncnc3nc[nH]c23)cc1CN(CCCl)CCCl`, for which the survivor count reads like this: (T/C endpoint: mean tumor weight, dose: 4.5 mg/kg/injection, schedule: Q01DX011 (ip), vehicle: other, higher T/C = larger tumour) 0 of 6; (T/C endpoint: mean tumor weight, dose: 9.0 mg/kg/injection, schedule: Q01DX011 (ip), vehicle: other, higher T/C = larger tumour) 0 of 6.

On to `C[C@]12CCC(=O)C=C1CC[C@@H]1[C@@H]2C(=O)C[C@@]2(C)[C@H]1CC[C@]2(O)C(=O)CO`, for which the survivor count is listed as 3 of 10 (T/C endpoint: mean tumor weight, dose: 200.0 mg/kg/injection, schedule: Q01DX011 (ip), vehicle: steroid suspending solution, higher T/C = larger tumour); 4 of 10 (T/C endpoint: mean tumor weight, dose: 400.0 mg/kg/injection, schedule: Q01DX011 (ip), vehicle: steroid suspending solution, higher T/C = larger tumour); 10 of 10 (T/C endpoint: median survival time, dose: 80.0 mg/kg/injection, schedule: Q02DX009 (ip), vehicle: Klucel (hydroxypropylcellulose) (HPC), higher T/C = longer survival); 9 of 10 (T/C endpoint: median survival time, dose: 160.0 mg/kg/injection, schedule: Q02DX009 (ip), vehicle: Klucel (hydroxypropylcellulose) (HPC), higher T/C = longer survival); 10 of 10 (T/C endpoint: median survival time, dose: 320.0 mg/kg/injection, schedule: Q02DX009 (ip), vehicle: Klucel (hydroxypropylcellulose) (HPC), higher T/C = longer survival); 7 of 10 (T/C endpoint: median survival time, dose: 640.0 mg/kg/injection, schedule: Q02DX009 (ip), vehicle: Klucel (hydroxypropylcellulose) (HPC), higher T/C = longer survival).

Turning to `S=C(N=Nc1ccccc1)NNc1ccccc1`, the survivor count runs as follows: (T/C endpoint: mean tumor weight, dose: 65.0 mg/kg/injection, schedule: Q01DX011 (ip), vehicle: carboxymethylcellulose (CMC), higher T/C = larger tumour) 0 of 6; (T/C endpoint: mean tumor weight, dose: 100.0 mg/kg/injection, schedule: Q01DX011 (ip), vehicle: carboxymethylcellulose (CMC), higher T/C = larger tumour) 1 of 6; (T/C endpoint: mean tumor weight, dose: 150.0 mg/kg/injection, schedule: Q01DX011 (ip), vehicle: carboxymethylcellulose (CMC), higher T/C = larger tumour) 0 of 6.

Take `CC[CH2][Pb]([Cl])([CH2]CC)[CH2]CC`: the T/C runs as follows: under setting [6], 143 % of control; under setting [7], 148 % of control. In addition, the survivor count under setting [6] is given as 0 of 10; the survivor count under setting [7] is reported as 0 of 10; the survivor count (T/C endpoint: median survival time, dose: 0.37 mg/kg/injection, schedule: Q01DX009 (ip), vehicle: DMSO, higher T/C = longer survival) is on record as 0 of 10; the survivor count (T/C endpoint: median survival time, dose: 0.75 mg/kg/injection, schedule: Q01DX009 (ip), vehicle: DMSO, higher T/C = longer survival) was 0 of 10; the survivor count (T/C endpoint: median survival time, dose: 1.5 mg/kg/injection, schedule: Q01DX009 (ip), vehicle: DMSO, higher T/C = longer survival) was 0 of 10.

(Values after PubChem BioAssay AID270 (DTP/NCI, 2004).)
